US10829519B2, “Angiotensin (1-7) analogs and methods relating thereto” (WAKE FOREST UNIVERSITY HEALTH SCIENCES, priority 2015, dated 2020)
Not every detail of the peptide structures is certain; ends, links or a residue may be inferred.

How the values were obtained:
[1] = test system: MDA-MB-231 human breast cancer cells; format: cell-based; details: 7 to 10 days
Method: To determine the effect of the peptide analogs on tumor cell growth, 100 nM Ang-(1-7) or analogs TCAng01-TCAng05 (SEQ ID NOs:2-6) were incubated with subconfluent monolayers of actively growing A549 human lung cancer cells or MDA-MB-231 human breast cancer cells in 24-well cluster plates for 6 to 10 days or 7 to 10 days. Assays were performed in duplicate for 4-14 replicates or 3-14 replicates, respectively. Cell number was counted using a Nexelcom Cellometer. […] Ang-(1-7) does inhibit the growth of human breast cancer cells (by 42.9±5.2%, n=6, over 6-10 days) and human lung cancer cells (by 53.1±7.1%, n=12, over 7-10 days) if it is added daily, as shown in FIG. 2 and FIG. 3.
A linear form of TCAng05 (L-TCAng05; SEQ ID NO:7) was tested to determine the influence of cyclization on the stability of the peptide. Subconfluent monolayers of MDA-MB-231 human breast cancer cells were incubated with 100 nM of Ang-(1-7), L-TCAng05, or TCAng05 for 7 to 10 days and cell number was counted using a Nexelcom Cellometer. Assays were performed in duplicate for 3-14 replicates. Ang-(1-7) was added daily, due to its rapid degradation.
Similar assays were performed to assess whether inhibition of cell growth by TCAng05 was mediated by the Ang-(1-7) receptor mas. […]

4T1 breast cancer cells = experiment: In vivo inhibition of tumor growth by subcutaneous administration, orthotopic 4T1 model in BALB/C mice; set-up: species or system mouse; details: 24 μg/kg/h, subcutaneous osmotic mini-pump; saline 980.1±35.0
Method: The ability of TCAng05 to inhibit tumor growth in vivo was measured in an orthotopic model of human breast cancer, using 4T1 breast cancer cells. 4T1 cells (2.5×10^5 in saline) were injected into the 4th mammary fat pad of BALB/C mice. Tumor size was measured every 3 days using a caliper and tumor volume was calculated using the formula for a semi-ellipsoid. The tumors were allowed to grow until they reached a size of 100 mm^3, at which point subcutaneous treatment was started (Day 0). Primed osmotic mini-pumps were implanted into the subcutaneous space on the back of each mouse to deliver either saline, 24 μg/kg/h Ang-(1-7), 6 μg/kg/h TCAng05 (low), 12 μg/kg/h TCAng05 (medium), or 24 μg/kg/h TCAng05 (high). Mice were sacrificed on Day 21 of treatment. Five animals were used per treatment group. […] Treatment with Ang-(1-7) reduced tumor size 50%, to a final size of 495.5±110.8 mm^3. […] At the time of sacrifice, the mice were weighed and the tumors, heart and kidneys were weighed.

[2] = test system: MDA-MB-231 human breast cancer cells; experiment: In vitro inhibition of MDA-MB-231 cell growth by analogs with amino acid substitutions (Example 7); format: cell-based; details: 100 nM, 8-10 days; Ang-(1-7) added daily, analogs added twice weekly
Method: To determine whether the novel analogs reduced tumor growth, subconfluent monolayers of actively growing MDA-MB-231 human breast cancer cells in 24-well cluster plates were incubated with 100 nM of Ang(1-7) (A7), TCAng05 (TC), or one of analogs NEP1-24 for 8-10 days. Ang-(1-7) was added daily as it is rapidly degraded while the Ang(1-7) analogs were added twice weekly at the time the cells were fed. Saline was used as control (C). Cell numbers were then counted using a Nexelcom Cellometer. Assays were performed in triplicate for 2-4 replicates.

CC[C@H](C)[C@H](NC(=O)[C@H](Cc1ccc(O)cc1)NC(=O)[C@@H](NC(=O)[C@H](CCCNC(=N)N)NC(=O)[C@@H](N)CC(=O)O)C(C)C)C(=O)N[C@@H](Cc1c[nH]cn1)C(=O)N1CCC[C@H]1C(=O)O [Ang-(1-7), DRVYIHP, reference compound]
inhibition of growth in the presence of Ang-(1-7) receptor antagonist Dala ([1]; 100 nM peptide plus 1 μM D-Alanine7-Ang-(1-7) [Dala]): blocked
effect on MDA-MB-231 cell growth ([1]; 100 nM, added once (Day 0/Day 1)): did not inhibit
final tumor size (volume) (4T1 breast cancer cells): 495.5±110.8 mm^3
reduction of cell growth [2]: 43.3±9.8%
